Results taken from the supplement of paper PMC10849652.
The other results are listed elsewhere or left out.

The chains behind the UniProt entries cited, without tags or fusion partners. Where a name states a change or a piece, a line headed by the entry shows the natural chain unless it says otherwise.
UniProt P13994: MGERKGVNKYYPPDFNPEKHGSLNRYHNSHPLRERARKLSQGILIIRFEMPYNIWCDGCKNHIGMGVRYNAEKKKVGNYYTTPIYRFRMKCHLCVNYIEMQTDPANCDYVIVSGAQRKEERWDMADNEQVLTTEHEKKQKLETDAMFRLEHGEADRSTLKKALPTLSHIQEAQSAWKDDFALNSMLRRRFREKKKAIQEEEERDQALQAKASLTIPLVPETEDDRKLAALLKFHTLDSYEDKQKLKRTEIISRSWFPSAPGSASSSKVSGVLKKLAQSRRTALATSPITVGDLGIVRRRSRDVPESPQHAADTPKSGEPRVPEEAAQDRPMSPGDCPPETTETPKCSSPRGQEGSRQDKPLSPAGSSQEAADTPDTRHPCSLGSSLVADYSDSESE
UniProt Q13951, whole entry, looked up: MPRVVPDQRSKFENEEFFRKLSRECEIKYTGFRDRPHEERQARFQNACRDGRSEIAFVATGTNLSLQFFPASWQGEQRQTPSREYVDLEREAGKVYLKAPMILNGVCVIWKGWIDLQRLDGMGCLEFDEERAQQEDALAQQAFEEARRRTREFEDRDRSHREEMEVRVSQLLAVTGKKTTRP
UniProt Q9GZT6: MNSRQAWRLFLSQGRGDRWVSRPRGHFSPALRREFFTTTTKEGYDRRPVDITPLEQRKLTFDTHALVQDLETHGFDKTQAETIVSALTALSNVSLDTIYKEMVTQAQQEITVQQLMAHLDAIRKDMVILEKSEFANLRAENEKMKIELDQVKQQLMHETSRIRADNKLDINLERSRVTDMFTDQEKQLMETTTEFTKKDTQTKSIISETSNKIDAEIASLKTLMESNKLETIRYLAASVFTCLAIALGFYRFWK
UniProt Q96S94: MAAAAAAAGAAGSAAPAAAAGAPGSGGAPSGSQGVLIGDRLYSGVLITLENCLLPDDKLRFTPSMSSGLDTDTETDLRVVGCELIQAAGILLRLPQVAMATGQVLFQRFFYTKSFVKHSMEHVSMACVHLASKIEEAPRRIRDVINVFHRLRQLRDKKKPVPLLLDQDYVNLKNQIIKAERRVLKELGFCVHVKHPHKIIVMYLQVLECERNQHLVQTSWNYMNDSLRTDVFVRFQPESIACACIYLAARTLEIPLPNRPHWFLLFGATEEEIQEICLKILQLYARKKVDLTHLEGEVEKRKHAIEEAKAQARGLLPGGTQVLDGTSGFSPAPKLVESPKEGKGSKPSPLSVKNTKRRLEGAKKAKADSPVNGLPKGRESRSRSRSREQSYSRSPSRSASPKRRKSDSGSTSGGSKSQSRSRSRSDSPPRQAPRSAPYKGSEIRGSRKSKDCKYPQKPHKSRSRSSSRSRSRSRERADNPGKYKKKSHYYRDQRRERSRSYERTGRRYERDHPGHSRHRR
UniProt Q8WXE0: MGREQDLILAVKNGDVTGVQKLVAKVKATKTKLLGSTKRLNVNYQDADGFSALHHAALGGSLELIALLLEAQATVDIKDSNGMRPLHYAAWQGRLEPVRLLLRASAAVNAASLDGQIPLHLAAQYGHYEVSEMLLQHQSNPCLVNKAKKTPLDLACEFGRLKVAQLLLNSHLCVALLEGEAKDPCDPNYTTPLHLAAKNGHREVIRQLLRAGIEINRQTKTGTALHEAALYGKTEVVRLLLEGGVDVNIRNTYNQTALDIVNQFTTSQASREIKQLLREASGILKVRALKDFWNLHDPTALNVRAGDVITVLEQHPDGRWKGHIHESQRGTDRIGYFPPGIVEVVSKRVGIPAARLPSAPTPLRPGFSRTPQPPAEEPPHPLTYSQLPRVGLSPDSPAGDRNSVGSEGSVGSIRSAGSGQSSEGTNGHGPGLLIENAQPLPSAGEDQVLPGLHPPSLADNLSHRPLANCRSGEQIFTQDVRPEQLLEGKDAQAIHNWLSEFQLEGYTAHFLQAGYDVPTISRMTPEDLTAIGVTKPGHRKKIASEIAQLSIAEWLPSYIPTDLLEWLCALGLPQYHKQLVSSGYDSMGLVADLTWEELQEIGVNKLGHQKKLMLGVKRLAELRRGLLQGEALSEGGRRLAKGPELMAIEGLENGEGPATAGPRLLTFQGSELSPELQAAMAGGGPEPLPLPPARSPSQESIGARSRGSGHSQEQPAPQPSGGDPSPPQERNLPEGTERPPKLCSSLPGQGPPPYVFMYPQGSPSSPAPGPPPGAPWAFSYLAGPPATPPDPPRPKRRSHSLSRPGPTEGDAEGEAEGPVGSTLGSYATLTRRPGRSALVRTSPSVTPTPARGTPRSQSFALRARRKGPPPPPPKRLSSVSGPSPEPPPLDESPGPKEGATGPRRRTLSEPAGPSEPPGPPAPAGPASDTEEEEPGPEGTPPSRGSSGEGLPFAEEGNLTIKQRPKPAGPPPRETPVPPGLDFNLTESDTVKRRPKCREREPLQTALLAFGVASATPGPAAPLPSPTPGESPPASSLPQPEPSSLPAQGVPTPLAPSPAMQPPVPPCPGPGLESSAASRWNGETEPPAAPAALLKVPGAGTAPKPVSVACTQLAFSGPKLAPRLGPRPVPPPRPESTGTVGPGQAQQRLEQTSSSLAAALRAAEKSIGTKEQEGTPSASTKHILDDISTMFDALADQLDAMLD
UniProt Q96MW1: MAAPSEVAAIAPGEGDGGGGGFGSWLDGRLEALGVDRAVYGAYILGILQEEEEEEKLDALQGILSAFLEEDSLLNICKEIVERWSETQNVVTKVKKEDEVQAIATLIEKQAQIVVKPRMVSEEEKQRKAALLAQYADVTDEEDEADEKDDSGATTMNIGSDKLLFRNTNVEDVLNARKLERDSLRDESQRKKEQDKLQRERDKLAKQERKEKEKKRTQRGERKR
UniProt Q9P0B6: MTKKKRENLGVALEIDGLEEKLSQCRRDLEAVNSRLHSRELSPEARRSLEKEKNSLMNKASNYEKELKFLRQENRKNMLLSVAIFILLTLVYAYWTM
UniProt Q9H257: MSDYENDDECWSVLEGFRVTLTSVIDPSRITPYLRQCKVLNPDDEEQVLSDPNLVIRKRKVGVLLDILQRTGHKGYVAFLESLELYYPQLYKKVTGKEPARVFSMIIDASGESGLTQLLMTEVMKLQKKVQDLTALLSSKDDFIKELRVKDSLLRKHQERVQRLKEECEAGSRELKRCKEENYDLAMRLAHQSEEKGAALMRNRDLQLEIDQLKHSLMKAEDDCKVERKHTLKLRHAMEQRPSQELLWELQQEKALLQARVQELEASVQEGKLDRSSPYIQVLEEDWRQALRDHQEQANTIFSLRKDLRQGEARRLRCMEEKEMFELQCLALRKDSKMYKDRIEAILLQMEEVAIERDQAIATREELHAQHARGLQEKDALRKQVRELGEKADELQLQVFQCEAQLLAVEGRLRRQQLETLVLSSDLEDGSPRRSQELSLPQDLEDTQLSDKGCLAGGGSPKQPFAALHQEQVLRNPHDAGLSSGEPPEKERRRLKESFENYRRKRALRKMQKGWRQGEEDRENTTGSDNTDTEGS
UniProt Q14790: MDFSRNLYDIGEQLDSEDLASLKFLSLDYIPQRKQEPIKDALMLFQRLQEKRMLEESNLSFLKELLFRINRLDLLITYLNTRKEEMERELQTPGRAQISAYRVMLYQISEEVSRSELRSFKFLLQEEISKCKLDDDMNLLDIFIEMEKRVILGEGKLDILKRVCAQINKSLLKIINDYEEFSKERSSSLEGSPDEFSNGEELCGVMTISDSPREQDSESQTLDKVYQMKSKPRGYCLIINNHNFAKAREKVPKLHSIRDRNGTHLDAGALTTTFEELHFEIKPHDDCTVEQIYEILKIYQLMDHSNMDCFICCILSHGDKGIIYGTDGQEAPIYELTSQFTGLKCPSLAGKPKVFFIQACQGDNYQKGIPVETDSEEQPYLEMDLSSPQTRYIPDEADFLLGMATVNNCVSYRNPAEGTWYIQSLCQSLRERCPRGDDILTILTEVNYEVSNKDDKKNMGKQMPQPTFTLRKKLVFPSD
UniProt P42575: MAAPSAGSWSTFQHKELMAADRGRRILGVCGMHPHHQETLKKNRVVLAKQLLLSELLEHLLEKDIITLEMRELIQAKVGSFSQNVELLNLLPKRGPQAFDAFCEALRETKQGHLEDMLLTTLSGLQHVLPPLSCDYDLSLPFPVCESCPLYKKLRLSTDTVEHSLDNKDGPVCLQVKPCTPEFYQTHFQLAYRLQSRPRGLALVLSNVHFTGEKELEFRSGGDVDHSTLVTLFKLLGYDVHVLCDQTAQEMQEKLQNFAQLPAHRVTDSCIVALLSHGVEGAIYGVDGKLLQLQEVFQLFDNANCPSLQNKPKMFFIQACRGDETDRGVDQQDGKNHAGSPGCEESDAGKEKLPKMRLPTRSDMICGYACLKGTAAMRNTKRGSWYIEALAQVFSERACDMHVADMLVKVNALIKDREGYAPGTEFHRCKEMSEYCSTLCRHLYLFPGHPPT
UniProt O60583: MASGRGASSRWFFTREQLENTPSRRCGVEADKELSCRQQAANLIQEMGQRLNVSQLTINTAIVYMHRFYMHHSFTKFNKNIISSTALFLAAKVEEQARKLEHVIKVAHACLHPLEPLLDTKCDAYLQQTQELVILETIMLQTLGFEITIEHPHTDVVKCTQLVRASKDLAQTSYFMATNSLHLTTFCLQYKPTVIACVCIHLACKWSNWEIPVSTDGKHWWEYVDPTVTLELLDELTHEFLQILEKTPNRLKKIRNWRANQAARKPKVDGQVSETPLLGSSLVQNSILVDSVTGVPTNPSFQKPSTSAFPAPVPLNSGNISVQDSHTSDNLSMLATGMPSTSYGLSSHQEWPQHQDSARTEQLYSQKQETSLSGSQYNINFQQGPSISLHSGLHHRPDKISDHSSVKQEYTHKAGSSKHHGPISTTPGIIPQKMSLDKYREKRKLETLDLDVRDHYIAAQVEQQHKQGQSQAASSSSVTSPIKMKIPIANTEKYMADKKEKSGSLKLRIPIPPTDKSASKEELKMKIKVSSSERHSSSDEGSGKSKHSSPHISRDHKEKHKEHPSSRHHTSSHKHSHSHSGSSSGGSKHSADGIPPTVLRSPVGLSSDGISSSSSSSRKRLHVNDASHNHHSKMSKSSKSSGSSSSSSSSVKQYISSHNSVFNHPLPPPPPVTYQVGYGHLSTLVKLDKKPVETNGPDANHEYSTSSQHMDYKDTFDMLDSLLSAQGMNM
UniProt O00421: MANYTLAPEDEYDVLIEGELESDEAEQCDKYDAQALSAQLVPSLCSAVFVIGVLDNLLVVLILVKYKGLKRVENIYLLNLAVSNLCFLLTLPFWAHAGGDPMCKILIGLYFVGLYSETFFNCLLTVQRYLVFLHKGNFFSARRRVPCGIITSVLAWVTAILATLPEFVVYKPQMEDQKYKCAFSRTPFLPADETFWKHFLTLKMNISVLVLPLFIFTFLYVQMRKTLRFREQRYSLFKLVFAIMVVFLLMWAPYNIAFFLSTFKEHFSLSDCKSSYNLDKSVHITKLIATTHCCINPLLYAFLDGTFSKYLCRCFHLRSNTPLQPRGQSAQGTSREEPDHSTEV
UniProt P48643, whole entry, looked up: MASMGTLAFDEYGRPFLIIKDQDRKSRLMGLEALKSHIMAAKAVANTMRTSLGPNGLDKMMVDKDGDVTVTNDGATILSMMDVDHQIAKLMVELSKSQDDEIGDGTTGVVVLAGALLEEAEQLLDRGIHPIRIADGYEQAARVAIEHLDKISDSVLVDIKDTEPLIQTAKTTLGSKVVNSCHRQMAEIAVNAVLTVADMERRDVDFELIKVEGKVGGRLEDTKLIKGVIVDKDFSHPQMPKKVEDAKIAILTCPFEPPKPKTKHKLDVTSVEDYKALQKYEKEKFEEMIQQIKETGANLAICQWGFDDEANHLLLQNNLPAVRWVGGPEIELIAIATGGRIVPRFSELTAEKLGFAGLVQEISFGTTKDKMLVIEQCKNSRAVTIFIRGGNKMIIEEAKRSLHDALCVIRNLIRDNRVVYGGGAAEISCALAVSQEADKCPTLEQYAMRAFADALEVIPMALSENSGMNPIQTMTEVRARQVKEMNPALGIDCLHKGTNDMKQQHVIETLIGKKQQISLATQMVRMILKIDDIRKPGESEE
UniProt Q8WUD4: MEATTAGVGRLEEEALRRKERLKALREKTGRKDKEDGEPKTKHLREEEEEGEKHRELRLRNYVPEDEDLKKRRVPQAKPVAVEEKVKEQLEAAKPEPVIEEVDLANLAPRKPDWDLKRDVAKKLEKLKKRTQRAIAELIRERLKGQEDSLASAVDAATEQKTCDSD
UniProt Q6PII3: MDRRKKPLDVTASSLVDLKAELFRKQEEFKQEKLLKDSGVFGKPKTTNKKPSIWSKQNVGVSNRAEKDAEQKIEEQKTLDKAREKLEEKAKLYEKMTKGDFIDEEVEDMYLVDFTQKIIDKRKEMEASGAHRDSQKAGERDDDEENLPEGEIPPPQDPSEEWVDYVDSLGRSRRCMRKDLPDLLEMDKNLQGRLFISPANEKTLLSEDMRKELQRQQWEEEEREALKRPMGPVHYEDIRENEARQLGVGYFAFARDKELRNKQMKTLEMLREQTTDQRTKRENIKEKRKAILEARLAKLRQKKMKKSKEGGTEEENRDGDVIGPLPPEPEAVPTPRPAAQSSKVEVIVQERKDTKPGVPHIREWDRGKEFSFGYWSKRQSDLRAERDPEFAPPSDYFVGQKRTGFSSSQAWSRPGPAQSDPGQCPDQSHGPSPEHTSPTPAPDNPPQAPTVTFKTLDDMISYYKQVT

Compound: CC1=C(SC2=C1C(=N[C@H](C3=NN=C(N32)C)CC(=O)N)C4=CC=C(C=C4)Cl)C
Experiment: log2 fold change, soluble protein after heating vs DMSO (PISA); higher = thermal stabilisation; K562 lysate, 10 uM; active = over 0.2 and 3.5 SD of the protein, either way, in both replicates (recomputed)
In short: (§1)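 Dounce homogenisation of K562 pellets in PBS pH 7.4 with 1 mM MgCl2 produced a crude extract, used at 1 mg/mL protein. Exposure to 10 μM compound lasted 30 min, and aliquots were then heated for 3 min across 48°C-58°C, pooled and brought to 0.5% NP-40 at 4°C. The supernatant after 21,000xg for 90 min was quantified by TMTpro 16plex LC-MS/MS with channel sums equalised. Duplicate values are given as log-two fold change in thermal stability relative to solvent controls.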

Target | log2 fold change
CBR1 (UniProt P16152) | inactive: -0.004
CCDC13 (UniProt Q8IYE1) | inactive: -0.099
CCDC50 (UniProt Q8IVM0) | inactive: 0.054
CD46 isoform 2 (UniProt P15529) | inactive: 0.007
CCDC22 (UniProt O60826) | inactive: 0
CCDC88C (UniProt Q9P219) | inactive: 0.184
CCDC130 (UniProt P13994) | inactive: 0.038
CBFB isoform 2 (UniProt Q13951) | inactive: -0.01
CCP110 (UniProt O43303) | inactive: 0.093
CASC4 (UniProt Q6P4E1) | inactive: 0.027
CCT6A (UniProt P40227) | inactive: -0.007
CBL (UniProt P22681) | inactive: -0.014
CARHSP1 (UniProt Q9Y2V2) | inactive: 0.027
CCDC90B (UniProt Q9GZT6) | inactive: 0.022
CCNL2 (UniProt Q96S94) | inactive: 0.134
CASKIN2 (UniProt Q8WXE0) | inactive: -0.027
CCDC43 (UniProt Q96MW1) | inactive: -0.028
CARD8 isoform 5 (UniProt Q9Y2G2) | inactive: 0.037
CD3EAP isoform 2 (UniProt O15446) | inactive: 0.017
CCDC167 (UniProt Q9P0B6) | inactive: -0.059

Target | log2 fold change
CCDC144A (UniProt A2RUR9) | inactive: 0.175
CD226 (UniProt Q15762) | inactive: 0.096
CCNYL1 (UniProt Q8N7R7) | inactive: -0.089
CCT3 (UniProt E9PM09) | inactive: 0.098
CARD9 (UniProt Q9H257) | inactive: 0.065
CASP8 isoform 9 (UniProt Q14790) | inactive: 0.014
CAVIN1 (UniProt Q6NZI2) | inactive: 0.044
CASP2 (UniProt P42575) | inactive: 0.054
CCNT2 (UniProt O60583) | inactive: 0.103
CCZ1 (UniProt P86791) | inactive: -0.022
CCDC117 (UniProt Q8IWD4) | inactive: -0.054
CCRL2 isoform 2 (UniProt O00421) | inactive: 0
CCDC102A (UniProt Q96A19) | inactive: -0.045
CCT5 (UniProt P48643) | inactive: -0.009
CBLB (UniProt Q13191) | inactive: -0.067
CCDC25 (UniProt Q86WR0) | inactive: 0.035
CCDC12 (UniProt Q8WUD4) | inactive: -0.041
CCDC174 (UniProt Q6PII3) | inactive: -0.011
CBS (UniProt P35520) | inactive: 0.013

Compound: CC1=C2C(=CC=C1)N=C(N(C2=O)C3=CC=CC=C3C)CN4C=NC5=C(N=CN=C54)N
Experiment: as above
In short: as §1

Target | log2 fold change
CBR1 (UniProt P16152) | inactive: 0.013
CCDC13 (UniProt Q8IYE1) | inactive: 0.089
CD46 isoform 2 (UniProt P15529) | inactive: -0.006
CCDC22 (UniProt O60826) | inactive: -0.044
CCDC88C (UniProt Q9P219) | inactive: 0.008
CBFB isoform 2 (UniProt Q13951) | inactive: 0.032
CCP110 (UniProt O43303) | inactive: 0.104
CASC4 (UniProt Q6P4E1) | inactive: 0.039
CCT6A (UniProt P40227) | inactive: -0.01
CBL (UniProt P22681) | inactive: -0.022
CARHSP1 (UniProt Q9Y2V2) | inactive: 0.019
CCDC90B (UniProt Q9GZT6) | inactive: 0.024
CCNL2 (UniProt Q96S94) | inactive: 0.028
CASKIN2 (UniProt Q8WXE0) | inactive: -0.098
CCDC43 (UniProt Q96MW1) | inactive: 0.039
CARD8 isoform 5 (UniProt Q9Y2G2) | inactive: 0.031
CD3EAP isoform 2 (UniProt O15446) | inactive: -0.011

Target | log2 fold change
CCDC144A (UniProt A2RUR9) | inactive: 0.154
CCNYL1 (UniProt Q8N7R7) | inactive: -0.009
CCT3 (UniProt E9PM09) | inactive: 0.102
CARD9 (UniProt Q9H257) | inactive: 0.023
CASP8 isoform 9 (UniProt Q14790) | inactive: 0.089
CAVIN1 (UniProt Q6NZI2) | inactive: -0.027
CASP2 (UniProt P42575) | inactive: -0.031
CCNT2 (UniProt O60583) | inactive: 0.164
CCZ1 (UniProt P86791) | inactive: 0.011
CCDC117 (UniProt Q8IWD4) | inactive: 0.123
CCDC102A (UniProt Q96A19) | inactive: -0.018
CCT5 (UniProt P48643) | inactive: -0.006
CBLB (UniProt Q13191) | inactive: 0.052
CCDC25 (UniProt Q86WR0) | inactive: 0.023
CCDC12 (UniProt Q8WUD4) | inactive: 0.03
CCDC174 (UniProt Q6PII3) | inactive: -0.022
CBS (UniProt P35520) | inactive: -0.001
